# Values from PubChem BioAssay AID652243 (Drosophila RNAi Screening Center, 2013).
# Test: 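Fly genes required for human androgen receptor driven transcription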 (primary screen)
# Cell system: Drosophila S2R+ cells
# Reagents: long dsRNA against Drosophila genes
# Time to read-out: 72 h (48 h, then 24 h hormone)
# Conditions: synthetic androgen R1881 at 10 nM for 24 h
# Measured: 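Per-well raw luminescence of the androgen-driven firefly reporter and of the Renilla control, two replicates each, without normalisation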
# Reading the numbers: firefly reporter light: higher = more light from androgen-responsive reporter; Renilla control light: higher = more constitutive control signal (cell number, transfection)
# Hit rule: 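Across duplicate plates, a knock-down whose log firefly/Renilla ratio shifted a set fold down or up from the GFP/LacZ control mean was a hit; the downward cut appears as both 1.5 and 3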
# Calls: active = hit: reporter lowered or raised; inactive = no hit
# The deposit covers about 24,000 reagents; below is a random part of those that have a named target and a result. In the full data, 246 (1%) were called active. 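Plates not normalised; calls are printed but the firefly/Renilla ratio behind them is not deposited; fold cut for lowering reported inconsistently.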 Raw values are not corrected between plates. The numbers tell different reagents against one gene apart. A plus sign joins genes that one reagent is predicted to hit. Not stated in the record: the amount of reagent.
gene,dsRNA no.,"firefly reporter light, replicate 1","firefly reporter light, replicate 2","Renilla control light, replicate 1","Renilla control light, replicate 2",Outcome
CG12481 (GeneID 32364),1,3.90e5,4.40e5,2.31e6,2.47e6,inactive
CG30411 (GeneID 246600),1,2.07e5,2.04e5,4.31e5,4.04e5,inactive
CG30411 (GeneID 246600),2,5.30e5,5.65e5,7.13e5,7.32e5,inactive
Cnot4 (GeneID 34416),1,1.60e5,2.28e5,1.47e6,1.63e6,inactive
Cnot4 (GeneID 34416),2,1.52e5,1.64e5,1.30e6,1.34e6,inactive
MED10 (GeneID 39777),1,1.95e5,1.81e5,1.79e6,1.41e6,inactive
Grip163 (GeneID 39365),1,1.07e5,1.26e5,1.74e6,1.62e6,inactive
Grip163 (GeneID 39365),2,3.14e5,3.10e5,5.80e5,7.12e5,inactive
Fa2h (GeneID 35670),1,4.04e5,3.59e5,2.03e6,1.56e6,inactive
Fa2h (GeneID 35670),2,2.00e5,2.08e5,1.68e6,2.10e6,inactive
Ykt6 (GeneID 31706),1,67767,34036,4.03e5,3.29e5,inactive
Ykt6 (GeneID 31706),2,2.95e5,2.88e5,1.11e6,7.66e5,inactive
ZnT41F (GeneID 35513),1,1.05e6,8.67e5,2.45e6,2.49e6,inactive
CG3662 (GeneID 33260),1,7.20e5,7.01e5,1.62e6,1.16e6,inactive
CG1607 (GeneID 43707),1,1.13e5,90179,8.29e5,6.55e5,inactive
CG1607 (GeneID 43707),2,4.97e5,4.39e5,7.21e5,7.91e5,inactive
eEF1beta (GeneID 45249),1,3.45e5,4.40e5,5.52e5,4.07e5,inactive
eEF1beta (GeneID 45249),2,5.64e5,4.82e5,7.72e5,6.44e5,inactive
CG16952 (GeneID 32546),1,6.16e5,5.90e5,4.65e6,1.81e6,inactive
Mos (GeneID 36404),1,2.65e5,2.14e5,1.35e6,1.57e6,inactive
Mos (GeneID 36404),2,,,,,inactive
CG1523 (GeneID 43400),1,1.46e5,60079,7.79e5,5.52e5,inactive
CG1523 (GeneID 43400),2,3.61e5,2.62e5,8.09e5,6.75e5,inactive
olf413 (GeneID 40453),1,1.78e5,1.70e5,3.14e5,2.82e5,inactive
olf413 (GeneID 40453),2,7.24e5,6.53e5,2.35e6,1.72e6,inactive
olf413 (GeneID 40453),3,1.75e5,1.67e5,1.77e6,1.84e6,inactive
olf413 (GeneID 40453),4,6.11e5,1.00e6,1.22e6,1.90e6,inactive
Cyp4ad1 (GeneID 35821),1,1.09e6,1.31e6,2.01e6,1.93e6,inactive
Reepl1 (GeneID 32103),1,3.29e5,2.84e5,3.94e6,2.98e6,inactive
Reepl1 (GeneID 32103),2,2.66e5,2.77e5,5.69e5,5.81e5,inactive
CG9003 (GeneID 36244),1,2.15e5,1.89e5,1.64e6,1.92e6,inactive
CG7881 (GeneID 35521),1,2.99e5,2.24e5,1.95e6,1.25e6,inactive
Jon25Bii (GeneID 33707),1,1.44e5,88676,1.59e6,5.48e5,inactive
Jon25Bii (GeneID 33707),2,5.51e5,3.99e5,8.12e5,6.70e5,inactive
fok (GeneID 44380),1,1.64e5,1.60e5,1.20e6,1.23e6,inactive
fok (GeneID 44380),2,6.38e5,3.65e5,6.36e5,5.88e5,inactive
Blm + CG14721,1,2.69e5,3.46e5,4.13e6,4.24e6,inactive
Dlip2 (GeneID 40579),1,89044,78768,1.75e6,1.75e6,inactive
Ocrl (GeneID 31157),1,87023,1.82e5,1.01e6,1.10e6,active
Ocrl (GeneID 31157),2,,,,,inactive
Ocrl (GeneID 31157),3,,,,,inactive
disco (GeneID 32579),1,5.23e5,4.99e5,4.60e6,3.34e6,inactive
disco (GeneID 32579),2,5.26e5,3.99e5,4.02e5,3.64e5,inactive
Sam-S (GeneID 48552),1,8.45e5,8.18e5,3.94e6,1.79e6,inactive
ems (GeneID 41697),1,8.58e5,4.22e5,7.93e5,6.47e5,inactive
CG3061 (GeneID 41707),1,96238,66459,2.07e6,1.17e6,inactive
CG3061 (GeneID 41707),2,3.21e5,2.56e5,7.10e5,4.06e5,inactive
PMP34 (GeneID 38532),1,5.62e5,5.92e5,1.63e6,1.28e6,inactive
CG34225 (GeneID 5740807),1,6.65e5,5.42e5,1.85e6,1.81e6,inactive
CG5084 (GeneID 37051),1,38515,83243,6.91e5,6.91e5,inactive
CG5084 (GeneID 37051),2,2.70e5,3.00e5,3.82e5,6.46e5,inactive
CG10555 (GeneID 31771),1,9.31e5,8.38e5,1.10e6,1.23e6,inactive
CG10555 (GeneID 31771),2,2.75e5,2.74e5,6.81e5,8.25e5,inactive
Tengl1 (GeneID 318883),1,1.33e5,1.37e5,9.77e5,7.59e5,inactive
CG13168 (GeneID 36327),1,2.52e5,1.67e5,1.21e6,1.20e6,inactive
P5CDh1 (GeneID 40434),1,51756,44265,4.14e5,3.81e5,inactive
Naglu (GeneID 46386),1,7.82e5,1.05e6,1.74e6,1.86e6,inactive
CG15728 (GeneID 32214),1,4.51e5,4.93e5,3.00e6,3.02e6,inactive
CG15728 (GeneID 32214),2,3.58e5,7.80e5,1.09e6,1.66e6,inactive
CG15728 (GeneID 32214),3,3.64e5,3.31e5,1.43e6,1.18e6,inactive

Not a retest: 7 of the entries above.
gene,dsRNA no.,"firefly reporter light, replicate 1","firefly reporter light, replicate 2","Renilla control light, replicate 1","Renilla control light, replicate 2",Outcome
CG30411 (GeneID 246600),2,5.30e5,5.65e5,7.13e5,7.32e5,inactive
Cnot4 (GeneID 34416),1,1.60e5,2.28e5,1.47e6,1.63e6,inactive
Cnot4 (GeneID 34416),2,1.52e5,1.64e5,1.30e6,1.34e6,inactive
MED10 (GeneID 39777),1,1.95e5,1.81e5,1.79e6,1.41e6,inactive
Grip163 (GeneID 39365),1,1.07e5,1.26e5,1.74e6,1.62e6,inactive
Grip163 (GeneID 39365),2,3.14e5,3.10e5,5.80e5,7.12e5,inactive
Fa2h (GeneID 35670),1,4.04e5,3.59e5,2.03e6,1.56e6,inactive
